These are yes or no findings as the source states them, for the method shown. Binding seen in cells or lysates may run through a third protein. Some entries that bind do so weakly or less than the wild type.
T1: CD151 (human (endogenous in HT29)) (UniProt P48509)
T1 sequence: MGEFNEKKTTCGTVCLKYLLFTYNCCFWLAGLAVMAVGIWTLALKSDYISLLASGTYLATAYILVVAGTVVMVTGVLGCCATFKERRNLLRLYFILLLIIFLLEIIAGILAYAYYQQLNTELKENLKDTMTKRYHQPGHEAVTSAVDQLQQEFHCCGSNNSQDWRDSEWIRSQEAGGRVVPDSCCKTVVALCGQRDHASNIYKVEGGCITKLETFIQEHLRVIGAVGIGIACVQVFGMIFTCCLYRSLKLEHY

Sequences of proteins named here, by UniProt entry; tags and fusion partners are left off. Residues count along the entry.
UniProt P40199, residues 35-320: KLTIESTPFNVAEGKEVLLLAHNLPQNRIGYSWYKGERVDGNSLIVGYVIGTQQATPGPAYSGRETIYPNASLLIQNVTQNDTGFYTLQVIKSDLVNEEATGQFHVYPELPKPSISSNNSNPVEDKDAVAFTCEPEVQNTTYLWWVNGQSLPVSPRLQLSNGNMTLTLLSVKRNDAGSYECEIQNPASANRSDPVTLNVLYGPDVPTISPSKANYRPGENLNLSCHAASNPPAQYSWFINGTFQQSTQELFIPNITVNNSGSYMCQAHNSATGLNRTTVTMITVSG
UniProt P01137, residues 279-390: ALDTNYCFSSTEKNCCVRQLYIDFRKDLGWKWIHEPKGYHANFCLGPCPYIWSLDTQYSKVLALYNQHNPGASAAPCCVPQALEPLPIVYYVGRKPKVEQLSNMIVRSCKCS

B1: leucine-rich repeat-containing G-protein coupled receptor 5 (LGR5) (receptor, UniProt O75473 22-907)
chain: GSSPRSGVLLRGCPTHCHCEPDGRMLLRVDCSDLGLSELPSNLSVFTSYLDLSMNNISQLLPNPLPSLRFLEELRLAGNALTYIPKGAFTGLYSLKVLMLQNNQLRHVPTEALQNLRSLQSLRLDANHISYVPPSCFSGLHSLRHLWLDDNALTEIPVQAFRSLSALQAMTLALNKIHHIPDYAFGNLSSLVVLHLHNNRIHSLGKKCFDGLHSLETLDLNYNNLDEFPTAIRTLSNLKELGFHSNNIRSIPEKAFVGNPSLITIHFYDNPIQFVGRSAFQHLPELRTLTLNGASQITEFPDLTGTANLESLTLTGAQISSLPQTVCNQLPNLQVLDLSYNLLEDLPSFSVCQKLQKIDLRHNEIYEIKVDTFQQLLSLRSLNLAWNKIAIIHPNAFSTLPSLIKLDLSSNLLSSFPITGLHGLTHLKLTGNHALQSLISSENFPELKVIEMPYAYQCCAFGVCENAYKISNQWNKGDNSSMDDLHKKDAGMFQAQDERDLEDFLLDFEEDLKALHSVQCSPSPGPFKPCEHLLDGWLIRIGVWTIAVLALTCNALVTSTVFRSPLYISPIKLLIGVIAAVNMLTGVSSAVLAGVDAFTFGSFARHGAWWENGVGCHVIGFLSIFASESSVFLLTLAALERGFSVKYSAKFETKAPFSSLKVIILLCALLALTMAAVPLLGGSKYGASPLCLPLPFGEPSTMGYMVALILLNSLCFLMMTIAYTKLYCNLDKGDLENIWDCSMVKHIALLLFTNCILNCPVAFLSFSSLINLTFISPEVIKFILLVVVPLPACLNPLLYILFNPHFKEDLVSLRKQTYVWTRSKHPSLMSINSDDVEKQSCDSTQALVTFTSSSITYDLPPSSVPSPAYPVTESCHLSSVAFVPCL

biological target: T1, CD151 (human (endogenous in HT29)); test: co-IP; CoIP of CD151 from HT29 cell lysate with anti-CD151 antibody (Figure 6C); how the partners were detected is not told

binding, binds:
carcinoembryonic antigen-related cell adhesion molecule 6 (CEACAM6) (from UniProt P40199 35-320)
transforming growth factor β1 (TGFβ1) (from UniProt P01137 279-390)
B1

Source: PMC7975690
